Laboratory results reported in PMC7819943, “Rice protein-binding microarrays: a tool to detect cis-acting elements near promoter regions in rice”.
The list shows a part of the results.

The sequences below were run against T1, OsSMF1 (Oryza sativa, UniProt Q6ZLB0 1-436) (assay: protein-binding microarray (RPBM); PBS, 2% BSA, 51.3 ng/ul salmon testes DNA, 50 uM zinc acetate, 200 nM TF, 25 C, 1 h; high values mean tight binding). Details: protein: recombinant; tags: N-terminal polyhistidine and DsRed monomer fusion (pET32a); chain copies: 2; label: CyDye5-dUTP incorporated in the synthesized complementary strand; 3' TTTTT single-stranded linker to array surface; dsDNA, one strand shown.
T1 sequence: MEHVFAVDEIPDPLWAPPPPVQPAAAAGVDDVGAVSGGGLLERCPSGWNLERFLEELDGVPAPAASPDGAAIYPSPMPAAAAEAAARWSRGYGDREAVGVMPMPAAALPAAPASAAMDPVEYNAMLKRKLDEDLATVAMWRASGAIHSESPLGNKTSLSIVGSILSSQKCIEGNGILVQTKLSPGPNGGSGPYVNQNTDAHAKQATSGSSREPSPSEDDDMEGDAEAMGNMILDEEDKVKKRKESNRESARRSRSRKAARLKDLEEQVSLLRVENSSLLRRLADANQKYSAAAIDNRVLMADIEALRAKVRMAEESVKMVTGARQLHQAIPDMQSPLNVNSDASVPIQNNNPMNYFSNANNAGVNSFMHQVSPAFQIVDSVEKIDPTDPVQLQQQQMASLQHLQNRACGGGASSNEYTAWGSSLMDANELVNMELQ
In short: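 Transcription factors, each fused N-terminally to a polyhistidine tag and DsRed, were expressed in E. coli BL21-CodonPlus and purified on Ni–NTA. A custom Agilent array was made double-stranded by primer extension with Cy5-dUTP and blocked with 2% BSA. It was incubated with 200 nM protein in PBS, 2% BSA, salmon testes DNA and 50 µM zinc acetate at 25 °C for 1 h, then washed. The binding signal is per-feature fluorescence intensity (arbitrary units) read on an Axon 4000B scanner.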

“ACGCGGCACGCGCGCAGTGTCAGAGTCACAGGCCAGTCACCGGAGTCACCTAGTGCAG” was tested. Which binding signal did it give?
Its binding signal is 4820 fluorescence intensity (a.u.).

“GGAGTTGTTGCGTGACTTGCGTCCTGCTGCTGCATCGTTCCGGAGTCACCTAGTGCAG” was tested. Which binding signal did it give?
The binding signal was 7330 fluorescence intensity (a.u.).

How did the binding signal turn out when “TATTCCTTTAGGCTATAAACACATCAGCATGATAAAGAGACGGAGTCACCTAGTGCAG” was run?
Its binding signal is 4180 fluorescence intensity (a.u.).

Which binding signal does the source give for “CTCTTCCTCCTCCGCTCCGCTCCACCTCGGTTGACCACCACGGAGTCACCTAGTGCAG” here?
Its binding signal is 3170 fluorescence intensity (a.u.).

How did the binding signal turn out when “TTCAGATTTCTGATGTGTGAACTGTGATCCCTGCTTGCTTCGGAGTCACCTAGTGCAG” was run?
The binding signal was 3380 fluorescence intensity (a.u.).

“CGGTGCTCTTCTCGCTGCCGGTGGCGTACCCGGTCGCCAACGGAGTCACCTAGTGCAG” was tested. Which binding signal did it give?
Its binding signal is 3780 fluorescence intensity (a.u.).

With “TATATTGGGGACGGAGTTAGTACGTGTACGTATAATCTACCGGAGTCACCTAGTGCAG” as the sequence, how does the binding signal read?
The binding signal was 5680 fluorescence intensity (a.u.).

How did the binding signal turn out when “CGGTAGGGCCCACATGTCTGTCGGGGTGGGCGGTGGTGGTCGGAGTCACCTAGTGCAG” was run?
The binding signal was 5220 fluorescence intensity (a.u.).

For “CCCTCCTCCCTCTCCCTCAGCCATCCTCCTCCTCCGCCGCCGGAGTCACCTAGTGCAG”, which binding signal is on record?
Its binding signal is 5200 fluorescence intensity (a.u.).

Which binding signal does the source give for “AATGTGACCACGTCATCCCCTTCTTTCCCTTTCCCCTCTTCGGAGTCACCTAGTGCAG” here?
Its binding signal is 33300 fluorescence intensity (a.u.).

How did the binding signal turn out when “TGTTCATCCAAGGAGATTATCAGGTTGTTTGTATATATAACGGAGTCACCTAGTGCAG” was run?
The binding signal was 26400 fluorescence intensity (a.u.).

“CCCTGCCACACCCTCGGTCCCACGTGTCAGTGTGTTGCACCGGAGTCACCTAGTGCAG” was tested. Which binding signal did it give?
Its binding signal is 15200 fluorescence intensity (a.u.).

For “GAGCGAATAAAAGTTTAGGGGAAACTGCTCATTTCAGCTTCGGAGTCACCTAGTGCAG”, which binding signal is on record?
Its binding signal is 29700 fluorescence intensity (a.u.).

For “TGCAGCACGGACTCCAAGACGTAATATGTGTATGACAGGTCGGAGTCACCTAGTGCAG”, which binding signal is on record?
Its binding signal is 4060 fluorescence intensity (a.u.).

With “TGAAGTACGTCGCGCCGAGCTCGGCCGCCACGGCGGAGTACGGAGTCACCTAGTGCAG” as the sequence, how does the binding signal read?
The binding signal was 3650 fluorescence intensity (a.u.).

With “TCACACCCCATCTATGTTGTCGCTCCACATAGGCTAGGCCCGGAGTCACCTAGTGCAG” as the sequence, how does the binding signal read?
Its binding signal is 3260 fluorescence intensity (a.u.).

“ACGCTTTCGCCGTGCCAAAGCCGTGACGTGCGCGCGCGTTCGGAGTCACCTAGTGCAG” was tested. Which binding signal did it give?
Its binding signal is 7370 fluorescence intensity (a.u.).

Which binding signal does the source give for “AGCTTGCATATAGCTGTCCAGATATGTTTGGTTGCTGACACGGAGTCACCTAGTGCAG” here?
The binding signal was 3640 fluorescence intensity (a.u.).

“GTCCAAACTAACCCCACCAAAGCTAAAACGTCATTTATTTCGGAGTCACCTAGTGCAG” was tested. Which binding signal did it give?
Its binding signal is 3390 fluorescence intensity (a.u.).

For “TGACAGCTCAATGCAAAACTATTGTGTTCGAACCATCAGACGGAGTCACCTAGTGCAG”, which binding signal is on record?
Its binding signal is 23300 fluorescence intensity (a.u.).

“TGATGCTACAATAAACATTTACTAATGACGGATTAATTAGCGGAGTCACCTAGTGCAG” was tested. Which binding signal did it give?
The binding signal was 3430 fluorescence intensity (a.u.).

How did the binding signal turn out when “GCCGCCCTATACGTGCGCCACGAAACGCAAGGCAGACGTCCGGAGTCACCTAGTGCAG” was run?
The binding signal was 3660 fluorescence intensity (a.u.).

“ATCTGGGCTTTGAGCAGACACACTAACGTGAAACTTAACTCGGAGTCACCTAGTGCAG” was tested. Which binding signal did it give?
The binding signal was 38800 fluorescence intensity (a.u.).

How did the binding signal turn out when “GCGCTCGTCGACGTGGACAACCGGGCGTCGCAGCGCGTGGCGGAGTCACCTAGTGCAG” was run?
The binding signal was 6920 fluorescence intensity (a.u.).

Which binding signal does the source give for “CTTGTGGCCCATTAATGGCTCGCGTCGGCCTAATTTTGTGCGGAGTCACCTAGTGCAG” here?
Its binding signal is 4450 fluorescence intensity (a.u.).

For “CTCGCTGTCTTTCTCTATCTAGCGGGTCGCGGTGAGTCGTCGGAGTCACCTAGTGCAG”, which binding signal is on record?
The binding signal was 3340 fluorescence intensity (a.u.).

How did the binding signal turn out when “GGACGACGTGCGACTGTGACACTTCACCTGCAGATACATACGGAGTCACCTAGTGCAG” was run?
The binding signal was 4080 fluorescence intensity (a.u.).

How did the binding signal turn out when “AGTGTGTACGGCGATGAACAGTGTCATCAGAATCATCCGACGGAGTCACCTAGTGCAG” was run?
The binding signal was 3140 fluorescence intensity (a.u.).

“TACTACTGATTTTCCCTTCGTCAAGCGACTCCAAAACGTGCGGAGTCACCTAGTGCAG” was tested. Which binding signal did it give?
The binding signal was 3320 fluorescence intensity (a.u.).

How did the binding signal turn out when “TCAATGATATTTATGTGTGTGACATGTATGTCGAGTTCGTCGGAGTCACCTAGTGCAG” was run?
The binding signal was 4360 fluorescence intensity (a.u.).

Which binding signal does the source give for “TCAGCTCAGCAAATTAGGATGTTTCATTAGTTAGAACAAACGGAGTCACCTAGTGCAG” here?
Its binding signal is 51600 fluorescence intensity (a.u.).

“TTGGACAAATCATTTGGCAAAATTTCAAAGTTTTGAATCTCGGAGTCACCTAGTGCAG” was tested. Which binding signal did it give?
The binding signal was 28600 fluorescence intensity (a.u.).

Which binding signal does the source give for “ATGTCGGTCTGATGTATATGCTTCTATGTTTGAATTGTGTCGGAGTCACCTAGTGCAG” here?
Its binding signal is 3270 fluorescence intensity (a.u.).

With “AGCATCCGAGACGTGACGTCACGTCACCCCGCCTTTACTCCGGAGTCACCTAGTGCAG” as the sequence, how does the binding signal read?
The binding signal was 28500 fluorescence intensity (a.u.).

For “GACCAGCGGTGGCCGGCGACGCCGCCACGGTGCTCGTCCCCGGAGTCACCTAGTGCAG”, which binding signal is on record?
Its binding signal is 4530 fluorescence intensity (a.u.).

With “ATCCACGCCGCCACCGGCGCCCCGACCTATCTCGCCCTCCCGGAGTCACCTAGTGCAG” as the sequence, how does the binding signal read?
Its binding signal is 3850 fluorescence intensity (a.u.).

“TACGGTCTCGTCGGTATCATCGAATTCTGTTATTCCCTTTCGGAGTCACCTAGTGCAG” was tested. Which binding signal did it give?
The binding signal was 3200 fluorescence intensity (a.u.).

With “GGAATGGATAGTGTTCTCGGAAGGAAATTGGTGCTGATGTCGGAGTCACCTAGTGCAG” as the sequence, how does the binding signal read?
Its binding signal is 45600 fluorescence intensity (a.u.).

How did the binding signal turn out when “AACACTCTCAGTGAAAGGAAACATCACTAGCAACGTTGCACGGAGTCACCTAGTGCAG” was run?
Its binding signal is 3420 fluorescence intensity (a.u.).

Which binding signal does the source give for “GTACGGTGTTTAACTTGCGTACTGTACAATTGTACATGTACGGAGTCACCTAGTGCAG” here?
Its binding signal is 3160 fluorescence intensity (a.u.).

For “CCTACAAGACACATCATCCAAAGATCAGCCTTGGAGTTCACGGAGTCACCTAGTGCAG”, which binding signal is on record?
Its binding signal is 4160 fluorescence intensity (a.u.).

For “CGATTTGTGACCGGTCTGACACTGGTCATGTCGTCAGCAGCGGAGTCACCTAGTGCAG”, which binding signal is on record?
The binding signal was 7660 fluorescence intensity (a.u.).
